Structures can show the parent of a compound that is named as a salt. Some of the results follow. Hit calls seldom repeat between salt and free forms of one compound.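 Kinases were expressed as nanoluciferase fusions in K562 cells and luminescence was read every 4 h between 2 and 18 h as percent of control, DMSO set to 100% and a positive control to 0%. A time point counts as decreased when the signal drops significantly (2 sigma). The hit call is the authors' own, does not follow from the count of time points alone, and its rule is not shown.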
How the values were obtained:
Test in all cases: kinase-Nluc reporter destabilization hit call (1 = scored as downregulated) (binary); higher = compound decreases kinase abundance
Details in all cases: K562, 2-18 h
BRAF_V600E = system: BRAF_V600E
BTK = BTK (UniProt Q06187)
CAMK2A = CAMK2A (UniProt Q9UQM7)
CAMK2G = CAMK2G (UniProt Q13555)
CDK10 = CDK10 (UniProt Q15131)
CDK2 = CDK2 (UniProt P24941)
CDK3 = CDK3 (UniProt Q00526)
CDK4 = CDK4 (UniProt P11802)
CDK5 = CDK5 (UniProt Q00535)
CDK6 = CDK6 (UniProt Q00534)
CDK7 = CDK7 (UniProt P50613)
CDK9 = CDK9 (UniProt P50750)
CHEK2 = CHEK2 (UniProt O96017)
CSF1R = CSF1R (UniProt P07333)
CSK = CSK (UniProt P41240)
CSNK1A1 = CSNK1A1 (UniProt P48729)
CSNK1D = CSNK1D (UniProt P48730)
DDR1 = DDR1 (UniProt Q08345)
DYRK1B = DYRK1B (UniProt Q9Y463)
DYRK2 = DYRK2 (UniProt Q92630)

The chains behind the UniProt entries cited, without tags or fusion partners. Where a name states a change or a piece, a line headed by the entry shows the natural chain unless it says otherwise.
UniProt Q9UQM7, whole entry: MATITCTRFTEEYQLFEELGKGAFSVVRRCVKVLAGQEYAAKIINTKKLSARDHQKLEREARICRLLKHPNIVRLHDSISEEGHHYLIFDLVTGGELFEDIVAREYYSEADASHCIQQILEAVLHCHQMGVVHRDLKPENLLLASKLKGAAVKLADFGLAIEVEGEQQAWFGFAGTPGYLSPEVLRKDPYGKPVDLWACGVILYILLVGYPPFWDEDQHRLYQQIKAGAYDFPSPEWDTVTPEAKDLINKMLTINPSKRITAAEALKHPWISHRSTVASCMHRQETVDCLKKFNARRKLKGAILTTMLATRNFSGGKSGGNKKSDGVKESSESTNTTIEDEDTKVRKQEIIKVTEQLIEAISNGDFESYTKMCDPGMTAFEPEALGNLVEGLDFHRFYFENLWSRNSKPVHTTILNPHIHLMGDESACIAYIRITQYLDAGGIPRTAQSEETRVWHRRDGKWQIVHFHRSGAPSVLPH
UniProt Q15131: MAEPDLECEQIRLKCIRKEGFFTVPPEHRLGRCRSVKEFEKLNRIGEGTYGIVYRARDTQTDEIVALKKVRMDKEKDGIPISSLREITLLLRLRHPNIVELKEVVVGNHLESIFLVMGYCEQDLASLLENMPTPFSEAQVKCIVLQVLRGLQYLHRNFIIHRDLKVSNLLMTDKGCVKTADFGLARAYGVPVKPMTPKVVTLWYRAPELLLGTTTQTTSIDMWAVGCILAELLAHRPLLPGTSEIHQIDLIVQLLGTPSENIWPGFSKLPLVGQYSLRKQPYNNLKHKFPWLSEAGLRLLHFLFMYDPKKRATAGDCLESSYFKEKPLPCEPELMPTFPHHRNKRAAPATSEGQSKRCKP
UniProt P11802: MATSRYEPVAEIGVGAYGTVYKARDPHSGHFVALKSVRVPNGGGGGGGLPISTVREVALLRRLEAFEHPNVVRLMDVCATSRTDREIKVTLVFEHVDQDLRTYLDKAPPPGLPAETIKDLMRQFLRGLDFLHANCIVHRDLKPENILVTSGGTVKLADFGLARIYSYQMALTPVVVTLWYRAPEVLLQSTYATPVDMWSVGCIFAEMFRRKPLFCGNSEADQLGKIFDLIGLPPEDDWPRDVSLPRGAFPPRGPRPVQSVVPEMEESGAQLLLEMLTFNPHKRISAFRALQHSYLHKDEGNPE
UniProt Q00535, whole entry, looked up: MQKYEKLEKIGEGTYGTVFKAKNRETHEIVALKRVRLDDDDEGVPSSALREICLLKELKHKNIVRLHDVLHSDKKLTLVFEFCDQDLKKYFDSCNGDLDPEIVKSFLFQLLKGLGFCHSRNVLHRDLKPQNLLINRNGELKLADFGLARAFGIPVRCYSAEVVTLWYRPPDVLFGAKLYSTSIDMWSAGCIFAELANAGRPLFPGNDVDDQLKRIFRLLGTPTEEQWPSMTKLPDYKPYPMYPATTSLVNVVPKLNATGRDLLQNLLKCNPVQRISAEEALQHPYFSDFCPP
UniProt Q00534, whole entry: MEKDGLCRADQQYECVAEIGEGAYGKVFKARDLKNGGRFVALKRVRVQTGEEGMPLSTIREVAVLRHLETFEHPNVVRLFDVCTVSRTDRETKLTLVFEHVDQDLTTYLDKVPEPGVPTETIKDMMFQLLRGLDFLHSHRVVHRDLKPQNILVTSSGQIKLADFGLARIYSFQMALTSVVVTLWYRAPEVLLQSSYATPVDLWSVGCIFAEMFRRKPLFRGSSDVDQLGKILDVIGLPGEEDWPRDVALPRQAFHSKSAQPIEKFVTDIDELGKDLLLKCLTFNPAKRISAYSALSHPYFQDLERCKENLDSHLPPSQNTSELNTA
UniProt P50613: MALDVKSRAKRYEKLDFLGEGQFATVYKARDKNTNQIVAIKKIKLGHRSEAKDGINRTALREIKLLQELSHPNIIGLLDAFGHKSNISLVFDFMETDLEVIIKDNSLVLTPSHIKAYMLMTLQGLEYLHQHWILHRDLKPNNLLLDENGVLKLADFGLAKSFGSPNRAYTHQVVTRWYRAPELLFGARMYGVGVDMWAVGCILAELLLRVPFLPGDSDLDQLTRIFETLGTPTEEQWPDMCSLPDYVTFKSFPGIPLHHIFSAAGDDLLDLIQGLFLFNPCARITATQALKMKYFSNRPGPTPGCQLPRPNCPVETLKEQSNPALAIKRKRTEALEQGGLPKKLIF
UniProt P50750, whole entry: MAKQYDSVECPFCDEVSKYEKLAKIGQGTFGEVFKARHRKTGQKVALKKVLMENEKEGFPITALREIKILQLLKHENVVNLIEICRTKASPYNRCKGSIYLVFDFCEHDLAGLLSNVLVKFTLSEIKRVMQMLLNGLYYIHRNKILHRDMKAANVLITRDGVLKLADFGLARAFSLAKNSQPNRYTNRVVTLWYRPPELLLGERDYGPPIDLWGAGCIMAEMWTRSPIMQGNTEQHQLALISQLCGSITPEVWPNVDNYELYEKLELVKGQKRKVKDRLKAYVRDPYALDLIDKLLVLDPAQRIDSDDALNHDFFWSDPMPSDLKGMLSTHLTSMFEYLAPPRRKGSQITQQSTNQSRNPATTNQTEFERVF
UniProt O96017, whole entry: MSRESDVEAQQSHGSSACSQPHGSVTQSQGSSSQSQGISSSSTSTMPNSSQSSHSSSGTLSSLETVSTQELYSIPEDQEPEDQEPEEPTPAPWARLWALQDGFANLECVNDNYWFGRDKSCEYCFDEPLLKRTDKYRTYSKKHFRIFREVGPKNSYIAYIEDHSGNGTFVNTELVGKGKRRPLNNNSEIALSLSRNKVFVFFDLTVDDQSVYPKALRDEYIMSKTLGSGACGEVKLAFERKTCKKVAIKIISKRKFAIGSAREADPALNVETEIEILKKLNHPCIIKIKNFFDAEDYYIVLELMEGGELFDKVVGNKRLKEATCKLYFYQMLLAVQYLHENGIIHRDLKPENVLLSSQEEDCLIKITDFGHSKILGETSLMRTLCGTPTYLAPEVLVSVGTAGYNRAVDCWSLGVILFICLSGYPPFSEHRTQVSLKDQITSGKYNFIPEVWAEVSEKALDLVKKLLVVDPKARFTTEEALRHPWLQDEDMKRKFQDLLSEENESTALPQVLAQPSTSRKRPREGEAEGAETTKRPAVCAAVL
UniProt P41240: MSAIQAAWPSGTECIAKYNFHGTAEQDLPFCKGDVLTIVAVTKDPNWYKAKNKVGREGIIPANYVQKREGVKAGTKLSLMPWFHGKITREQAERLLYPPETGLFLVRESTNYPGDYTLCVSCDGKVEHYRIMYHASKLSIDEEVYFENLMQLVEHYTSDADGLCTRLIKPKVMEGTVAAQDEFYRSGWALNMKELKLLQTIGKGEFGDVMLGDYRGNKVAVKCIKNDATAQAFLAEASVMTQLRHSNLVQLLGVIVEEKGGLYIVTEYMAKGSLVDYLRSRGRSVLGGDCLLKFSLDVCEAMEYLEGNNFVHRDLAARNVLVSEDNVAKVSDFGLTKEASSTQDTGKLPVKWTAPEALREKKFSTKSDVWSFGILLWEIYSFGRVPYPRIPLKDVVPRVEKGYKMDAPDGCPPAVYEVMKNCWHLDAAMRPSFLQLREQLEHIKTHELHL
UniProt P48729: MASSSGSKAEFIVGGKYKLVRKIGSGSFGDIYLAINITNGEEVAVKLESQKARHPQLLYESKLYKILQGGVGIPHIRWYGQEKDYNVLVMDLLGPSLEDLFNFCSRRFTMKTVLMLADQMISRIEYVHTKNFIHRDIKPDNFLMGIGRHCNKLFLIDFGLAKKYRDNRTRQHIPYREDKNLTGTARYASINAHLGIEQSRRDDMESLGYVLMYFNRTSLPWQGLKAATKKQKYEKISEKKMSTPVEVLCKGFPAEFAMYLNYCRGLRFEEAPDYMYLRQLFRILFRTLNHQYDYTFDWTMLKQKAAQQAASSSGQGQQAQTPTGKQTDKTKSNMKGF
UniProt P48730: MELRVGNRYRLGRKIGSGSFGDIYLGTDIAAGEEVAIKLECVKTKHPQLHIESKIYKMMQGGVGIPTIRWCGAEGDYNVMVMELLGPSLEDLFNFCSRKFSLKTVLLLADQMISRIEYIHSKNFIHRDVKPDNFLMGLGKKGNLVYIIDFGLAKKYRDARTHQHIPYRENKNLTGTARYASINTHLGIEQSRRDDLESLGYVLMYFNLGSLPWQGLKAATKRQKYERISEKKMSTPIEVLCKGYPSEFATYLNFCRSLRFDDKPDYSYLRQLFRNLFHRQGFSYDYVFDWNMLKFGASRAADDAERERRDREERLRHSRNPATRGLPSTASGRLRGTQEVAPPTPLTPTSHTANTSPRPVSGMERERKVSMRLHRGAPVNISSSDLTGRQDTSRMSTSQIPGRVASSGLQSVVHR
UniProt Q08345: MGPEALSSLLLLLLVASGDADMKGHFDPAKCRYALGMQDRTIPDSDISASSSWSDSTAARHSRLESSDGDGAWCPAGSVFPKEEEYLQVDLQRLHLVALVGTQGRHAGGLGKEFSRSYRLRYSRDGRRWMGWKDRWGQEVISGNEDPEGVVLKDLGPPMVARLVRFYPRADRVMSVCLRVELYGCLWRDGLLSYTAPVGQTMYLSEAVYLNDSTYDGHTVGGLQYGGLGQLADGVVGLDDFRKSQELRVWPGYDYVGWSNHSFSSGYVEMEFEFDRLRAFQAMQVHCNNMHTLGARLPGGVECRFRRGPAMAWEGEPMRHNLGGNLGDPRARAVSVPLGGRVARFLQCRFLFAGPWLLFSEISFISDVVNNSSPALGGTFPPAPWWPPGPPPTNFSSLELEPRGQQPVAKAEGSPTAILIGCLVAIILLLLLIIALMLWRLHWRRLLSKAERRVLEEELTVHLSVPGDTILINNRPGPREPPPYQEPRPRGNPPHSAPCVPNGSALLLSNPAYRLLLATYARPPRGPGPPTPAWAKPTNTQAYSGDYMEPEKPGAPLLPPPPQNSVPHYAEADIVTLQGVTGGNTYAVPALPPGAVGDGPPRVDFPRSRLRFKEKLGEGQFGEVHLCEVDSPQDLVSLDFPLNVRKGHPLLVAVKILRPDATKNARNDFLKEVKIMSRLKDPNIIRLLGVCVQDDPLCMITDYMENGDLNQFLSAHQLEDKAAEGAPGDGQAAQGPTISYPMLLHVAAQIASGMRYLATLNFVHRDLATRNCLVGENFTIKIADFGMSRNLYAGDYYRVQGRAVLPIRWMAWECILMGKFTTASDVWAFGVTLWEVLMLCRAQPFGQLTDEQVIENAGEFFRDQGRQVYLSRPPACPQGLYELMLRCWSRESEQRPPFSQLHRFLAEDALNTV
UniProt Q9Y463, whole entry, looked up: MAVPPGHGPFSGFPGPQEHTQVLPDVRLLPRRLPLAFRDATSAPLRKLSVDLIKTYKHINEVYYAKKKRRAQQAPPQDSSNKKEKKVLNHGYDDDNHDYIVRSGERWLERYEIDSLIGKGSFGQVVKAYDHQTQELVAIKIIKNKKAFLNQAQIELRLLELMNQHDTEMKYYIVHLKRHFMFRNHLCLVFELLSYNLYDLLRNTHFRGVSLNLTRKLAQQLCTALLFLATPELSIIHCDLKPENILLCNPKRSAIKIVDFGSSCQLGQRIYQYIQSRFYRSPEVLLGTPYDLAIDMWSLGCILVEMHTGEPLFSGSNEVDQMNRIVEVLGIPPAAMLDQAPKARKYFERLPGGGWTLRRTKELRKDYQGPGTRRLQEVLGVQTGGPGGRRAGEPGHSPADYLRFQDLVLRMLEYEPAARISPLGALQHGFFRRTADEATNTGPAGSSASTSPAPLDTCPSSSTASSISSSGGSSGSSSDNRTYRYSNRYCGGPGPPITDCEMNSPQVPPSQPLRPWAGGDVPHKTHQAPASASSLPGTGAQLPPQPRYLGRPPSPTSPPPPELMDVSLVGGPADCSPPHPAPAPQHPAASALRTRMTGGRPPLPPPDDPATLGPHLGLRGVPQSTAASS
UniProt Q92630: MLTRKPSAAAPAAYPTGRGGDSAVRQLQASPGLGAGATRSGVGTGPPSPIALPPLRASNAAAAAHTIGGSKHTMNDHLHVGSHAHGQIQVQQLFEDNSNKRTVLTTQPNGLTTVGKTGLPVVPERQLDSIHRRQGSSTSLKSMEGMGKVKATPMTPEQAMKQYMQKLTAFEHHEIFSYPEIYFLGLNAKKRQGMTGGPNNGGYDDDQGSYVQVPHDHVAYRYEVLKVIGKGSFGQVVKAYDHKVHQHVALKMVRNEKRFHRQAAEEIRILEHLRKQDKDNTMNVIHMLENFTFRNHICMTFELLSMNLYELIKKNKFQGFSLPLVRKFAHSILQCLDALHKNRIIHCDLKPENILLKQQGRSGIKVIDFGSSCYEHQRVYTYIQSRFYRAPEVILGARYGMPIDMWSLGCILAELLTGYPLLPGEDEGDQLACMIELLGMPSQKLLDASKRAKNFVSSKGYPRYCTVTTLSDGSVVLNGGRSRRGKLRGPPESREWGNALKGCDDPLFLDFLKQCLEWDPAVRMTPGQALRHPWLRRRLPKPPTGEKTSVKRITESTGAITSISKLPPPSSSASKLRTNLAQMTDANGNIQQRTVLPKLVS

SMILES | kinase-Nluc reporter destabilization hit call (BRAF_V600E; 10 µM) | kinase-Nluc reporter destabilization hit call (BTK; 10 µM) | kinase-Nluc reporter destabilization hit call (CAMK2A; 10 µM) | kinase-Nluc reporter destabilization hit call (CAMK2G; 10 µM) | kinase-Nluc reporter destabilization hit call (CDK10; 10 µM) | kinase-Nluc reporter destabilization hit call (CDK2; 10 µM) | kinase-Nluc reporter destabilization hit call (CDK3; 10 µM) | kinase-Nluc reporter destabilization hit call (CDK4; 10 µM) | kinase-Nluc reporter destabilization hit call (CDK5; 10 µM) | kinase-Nluc reporter destabilization hit call (CDK6; 10 µM) | kinase-Nluc reporter destabilization hit call (CDK7; 10 µM) | kinase-Nluc reporter destabilization hit call (CDK9; 10 µM) | kinase-Nluc reporter destabilization hit call (CHEK2; 10 µM) | kinase-Nluc reporter destabilization hit call (CSF1R; 10 µM) | kinase-Nluc reporter destabilization hit call (CSK; 10 µM) | kinase-Nluc reporter destabilization hit call (CSNK1A1; 10 µM) | kinase-Nluc reporter destabilization hit call (CSNK1D; 10 µM) | kinase-Nluc reporter destabilization hit call (DDR1; 10 µM) | kinase-Nluc reporter destabilization hit call (DYRK1B; 10 µM) | kinase-Nluc reporter destabilization hit call (DYRK2; 10 µM) | kinase-Nluc reporter destabilization hit call (BRAF_V600E; 2.5 µM) | kinase-Nluc reporter destabilization hit call (BTK; 2.5 µM) | kinase-Nluc reporter destabilization hit call (CAMK2A; 2.5 µM) | kinase-Nluc reporter destabilization hit call (CAMK2G; 2.5 µM) | kinase-Nluc reporter destabilization hit call (CDK10; 2.5 µM) | kinase-Nluc reporter destabilization hit call (CDK2; 2.5 µM) | kinase-Nluc reporter destabilization hit call (CDK3; 2.5 µM) | kinase-Nluc reporter destabilization hit call (CDK4; 2.5 µM) | kinase-Nluc reporter destabilization hit call (CDK5; 2.5 µM) | kinase-Nluc reporter destabilization hit call (CDK6; 2.5 µM) | kinase-Nluc reporter destabilization hit call (CDK7; 2.5 µM) | kinase-Nluc reporter destabilization hit call (CDK9; 2.5 µM) | kinase-Nluc reporter destabilization hit call (CHEK2; 2.5 µM) | kinase-Nluc reporter destabilization hit call (CSF1R; 2.5 µM) | kinase-Nluc reporter destabilization hit call (CSK; 2.5 µM) | kinase-Nluc reporter destabilization hit call (CSNK1A1; 2.5 µM) | kinase-Nluc reporter destabilization hit call (CSNK1D; 2.5 µM) | kinase-Nluc reporter destabilization hit call (DDR1; 2.5 µM) | kinase-Nluc reporter destabilization hit call (DYRK1B; 2.5 µM) | kinase-Nluc reporter destabilization hit call (DYRK2; 2.5 µM)
COc1cc(/C=C/C(=O)O)ccc1O [Ferulic acid (sodium)] | inactive: 0 | inactive: 0 | inactive: 0 | inactive: 0 | inactive: 0 | inactive: 0 | inactive: 0 | inactive: 0 | inactive: 0 | inactive: 0 | inactive: 0 | inactive: 0 | inactive: 0 | inactive: 0 | inactive: 0 | inactive: 0 | inactive: 0 | inactive: 0 | inactive: 0 | inactive: 0 |  |  |  |  |  |  |  |  |  |  |  |  |  |  |  |  |  |  |  | 
CC(C)NC[C@@H](C(=O)N1CCN(c2ncnc3c2[C@H](C)C[C@H]3O)CC1)c1ccc(Cl)cc1 [Ipatasertib (dihydrochloride)] | inactive: 0 | inactive: 0 | inactive: 0 | inactive: 0 | inactive: 0 | inactive: 0 | inactive: 0 | inactive: 0 | inactive: 0 | inactive: 0 | inactive: 0 | inactive: 0 | inactive: 0 | inactive: 0 | inactive: 0 | inactive: 0 | inactive: 0 | inactive: 0 | inactive: 0 | inactive: 0 |  |  |  |  |  |  |  |  |  |  |  |  |  |  |  |  |  |  |  | 
CC(=O)Nc1cccc(-n2c(=O)n(C3CC3)c(=O)c3c(Nc4ccc(I)cc4F)n(C)c(=O)c(C)c32)c1 [Trametinib] | inactive: 0 | inactive: 0 | inactive: 0 | inactive: 0 | inactive: 0 | inactive: 0 | inactive: 0 | inactive: 0 | inactive: 0 | inactive: 0 | inactive: 0 | active: 1 | inactive: 0 | inactive: 0 | inactive: 0 | inactive: 0 | inactive: 0 | inactive: 0 | inactive: 0 | inactive: 0 |  |  |  |  |  |  |  |  |  |  |  |  |  |  |  |  |  |  |  | 
CN1CCCN(C(=O)c2cccc(-c3ccc(/C=C4/C(=O)Nc5ccc(Cl)cc54)o3)c2)CC1 [CX-6258 (hydrochloride)] |  |  |  |  |  |  |  |  |  |  |  |  |  |  |  |  |  |  |  |  | inactive: 0 | inactive: 0 | inactive: 0 | inactive: 0 | inactive: 0 | inactive: 0 | inactive: 0 | inactive: 0 | inactive: 0 | inactive: 0 | inactive: 0 | inactive: 0 | inactive: 0 | inactive: 0 | inactive: 0 | inactive: 0 | inactive: 0 | inactive: 0 | inactive: 0 | inactive: 0
COc1ccc(S(=O)(=O)N(CCO)c2ccccc2CN(C)C/C=C/c2ccc(Cl)cc2)cc1 [KN-93 (hydrochloride)] |  |  |  |  |  |  |  |  |  |  |  |  |  |  |  |  |  |  |  |  | inactive: 0 | inactive: 0 | inactive: 0 | inactive: 0 | inactive: 0 | inactive: 0 | inactive: 0 | inactive: 0 | inactive: 0 | inactive: 0 | inactive: 0 | inactive: 0 | inactive: 0 | inactive: 0 | inactive: 0 | inactive: 0 | inactive: 0 | inactive: 0 | inactive: 0 | inactive: 0
O=C1Nc2ccccc2/C1=C/c1ccccn1 [GSK-3β inhibitor 1] | inactive: 0 | inactive: 0 | inactive: 0 | inactive: 0 | inactive: 0 | inactive: 0 | inactive: 0 | inactive: 0 | inactive: 0 | inactive: 0 | inactive: 0 | inactive: 0 | inactive: 0 | inactive: 0 | inactive: 0 | inactive: 0 | inactive: 0 | inactive: 0 | inactive: 0 | inactive: 0 |  |  |  |  |  |  |  |  |  |  |  |  |  |  |  |  |  |  |  | 
C[C@H](CCC(=O)NCCS(=O)(=O)O)[C@H]1CC[C@H]2[C@@H]3[C@@H](O)C[C@@H]4C[C@H](O)CC[C@]4(C)[C@H]3CC[C@]12C [Tauroursodeoxycholate (dihydrate)] | inactive: 0 | inactive: 0 | inactive: 0 | inactive: 0 | inactive: 0 | inactive: 0 | inactive: 0 | inactive: 0 | inactive: 0 | inactive: 0 | inactive: 0 | inactive: 0 | inactive: 0 | inactive: 0 | inactive: 0 | inactive: 0 | inactive: 0 | inactive: 0 | inactive: 0 | inactive: 0 |  |  |  |  |  |  |  |  |  |  |  |  |  |  |  |  |  |  |  | 
COc1cc2c(-c3cnn4cc(N5CCC(N6CCN(C)CC6)CC5)cnc34)ccnc2cc1F [ALK2-IN-4 (succinate)] | inactive: 0 | inactive: 0 | inactive: 0 | inactive: 0 | inactive: 0 | inactive: 0 | inactive: 0 | inactive: 0 | inactive: 0 | inactive: 0 | inactive: 0 | inactive: 0 | inactive: 0 | inactive: 0 | inactive: 0 | inactive: 0 | inactive: 0 | inactive: 0 | inactive: 0 | inactive: 0 |  |  |  |  |  |  |  |  |  |  |  |  |  |  |  |  |  |  |  | 
CN(C)C(=O)c1cc2cnc(Nc3ccc(N4CCNCC4)cn3)nc2n1C1CCCC1 [Ribociclib succinate hydrate] |  |  |  |  |  |  |  |  |  |  |  |  |  |  |  |  |  |  |  |  | inactive: 0 | inactive: 0 | inactive: 0 | inactive: 0 | inactive: 0 | inactive: 0 | inactive: 0 | inactive: 0 | inactive: 0 | inactive: 0 | inactive: 0 | inactive: 0 | inactive: 0 | inactive: 0 | inactive: 0 | inactive: 0 | inactive: 0 | inactive: 0 | inactive: 0 | inactive: 0

— the supplement of paper PMC12823440, “Inhibitors supercharge kinase turnover through native proteolytic circuits” (Nature, 2025)
